Values of other authors in publication PMC11912471, “Design, Synthesis, and Biological Activity of Novel Ornithine Decarboxylase (ODC) Inhibitors” (Journal of Medicinal Chemistry, 2025).

Settings: cited from earlier work

For NCCC[C@H](N)C(=O)O [ornithine], the “pKa of amino group” value (ornithine α-amino group, putrescine nitrogen) is listed as roughly 8.7 and the “pKa printed in Figure 1” value (ornithine α-amino, putrescine) is listed as ~ 8.5.
